From publication PMC8864472

Chains of the proteins cited; added tags and fusions are not shown. Residues count along the entry.
UniProt Q99805, residues 29-663: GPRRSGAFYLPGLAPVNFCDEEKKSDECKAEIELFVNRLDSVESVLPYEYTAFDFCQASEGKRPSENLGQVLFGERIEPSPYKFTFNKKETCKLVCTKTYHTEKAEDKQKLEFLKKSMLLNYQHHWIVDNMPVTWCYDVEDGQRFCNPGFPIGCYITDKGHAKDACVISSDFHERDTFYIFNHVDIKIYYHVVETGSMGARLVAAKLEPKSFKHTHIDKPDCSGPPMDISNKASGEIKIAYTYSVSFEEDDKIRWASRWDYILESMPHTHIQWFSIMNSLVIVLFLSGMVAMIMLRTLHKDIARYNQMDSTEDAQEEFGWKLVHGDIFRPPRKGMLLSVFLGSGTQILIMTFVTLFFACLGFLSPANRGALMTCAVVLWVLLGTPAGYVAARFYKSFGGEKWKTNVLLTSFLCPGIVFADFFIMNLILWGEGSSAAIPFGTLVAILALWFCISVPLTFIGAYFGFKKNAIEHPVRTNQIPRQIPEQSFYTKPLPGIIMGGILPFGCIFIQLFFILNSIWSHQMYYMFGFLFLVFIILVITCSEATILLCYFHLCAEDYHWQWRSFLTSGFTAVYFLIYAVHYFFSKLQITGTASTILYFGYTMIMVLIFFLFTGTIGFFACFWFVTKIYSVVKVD
UniProt P30101, residues 25-505: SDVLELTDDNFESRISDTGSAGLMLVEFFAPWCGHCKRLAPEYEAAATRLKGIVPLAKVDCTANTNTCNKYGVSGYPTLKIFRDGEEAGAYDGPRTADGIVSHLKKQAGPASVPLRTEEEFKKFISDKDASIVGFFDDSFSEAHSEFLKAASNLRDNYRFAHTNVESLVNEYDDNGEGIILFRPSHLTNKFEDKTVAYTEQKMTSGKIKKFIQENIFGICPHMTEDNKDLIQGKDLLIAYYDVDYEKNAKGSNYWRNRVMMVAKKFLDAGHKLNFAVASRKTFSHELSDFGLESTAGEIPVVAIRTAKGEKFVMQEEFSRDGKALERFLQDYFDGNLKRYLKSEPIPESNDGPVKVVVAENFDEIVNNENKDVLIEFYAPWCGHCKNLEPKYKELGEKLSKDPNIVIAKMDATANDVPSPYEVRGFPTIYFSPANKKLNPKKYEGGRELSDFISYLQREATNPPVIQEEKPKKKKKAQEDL
UniProt Q92544, residues 24-642: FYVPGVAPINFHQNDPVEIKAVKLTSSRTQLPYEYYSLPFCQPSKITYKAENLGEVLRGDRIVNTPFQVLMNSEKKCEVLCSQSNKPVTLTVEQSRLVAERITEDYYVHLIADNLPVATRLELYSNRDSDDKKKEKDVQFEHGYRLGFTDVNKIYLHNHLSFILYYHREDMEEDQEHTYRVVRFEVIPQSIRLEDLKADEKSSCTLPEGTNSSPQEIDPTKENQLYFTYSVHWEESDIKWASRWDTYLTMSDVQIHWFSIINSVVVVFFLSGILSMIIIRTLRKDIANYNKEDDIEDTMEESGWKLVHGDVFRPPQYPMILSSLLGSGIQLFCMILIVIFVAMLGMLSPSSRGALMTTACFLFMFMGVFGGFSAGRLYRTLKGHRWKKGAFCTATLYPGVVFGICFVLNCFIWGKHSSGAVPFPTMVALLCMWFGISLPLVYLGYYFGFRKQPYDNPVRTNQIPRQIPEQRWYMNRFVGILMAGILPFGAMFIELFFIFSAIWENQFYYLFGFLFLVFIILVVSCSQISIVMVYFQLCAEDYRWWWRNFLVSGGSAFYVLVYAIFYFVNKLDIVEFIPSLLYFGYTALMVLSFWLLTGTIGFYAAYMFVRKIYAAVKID
UniProt O15321, residues 28-606: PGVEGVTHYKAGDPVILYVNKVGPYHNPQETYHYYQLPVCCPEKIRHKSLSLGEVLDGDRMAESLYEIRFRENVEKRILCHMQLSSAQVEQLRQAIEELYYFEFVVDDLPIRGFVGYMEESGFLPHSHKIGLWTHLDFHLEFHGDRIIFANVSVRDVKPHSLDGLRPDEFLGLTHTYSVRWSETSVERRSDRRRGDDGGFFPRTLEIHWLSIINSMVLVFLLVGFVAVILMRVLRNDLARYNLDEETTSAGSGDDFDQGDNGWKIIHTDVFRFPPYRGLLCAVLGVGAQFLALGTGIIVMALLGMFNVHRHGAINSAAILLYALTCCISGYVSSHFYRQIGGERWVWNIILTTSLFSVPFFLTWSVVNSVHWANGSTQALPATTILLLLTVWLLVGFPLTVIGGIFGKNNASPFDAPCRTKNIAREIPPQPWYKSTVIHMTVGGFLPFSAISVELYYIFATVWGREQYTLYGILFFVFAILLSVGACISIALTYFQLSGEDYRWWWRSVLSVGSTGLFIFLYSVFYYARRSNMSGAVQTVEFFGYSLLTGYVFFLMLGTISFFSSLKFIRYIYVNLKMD
UniProt Q8IY17: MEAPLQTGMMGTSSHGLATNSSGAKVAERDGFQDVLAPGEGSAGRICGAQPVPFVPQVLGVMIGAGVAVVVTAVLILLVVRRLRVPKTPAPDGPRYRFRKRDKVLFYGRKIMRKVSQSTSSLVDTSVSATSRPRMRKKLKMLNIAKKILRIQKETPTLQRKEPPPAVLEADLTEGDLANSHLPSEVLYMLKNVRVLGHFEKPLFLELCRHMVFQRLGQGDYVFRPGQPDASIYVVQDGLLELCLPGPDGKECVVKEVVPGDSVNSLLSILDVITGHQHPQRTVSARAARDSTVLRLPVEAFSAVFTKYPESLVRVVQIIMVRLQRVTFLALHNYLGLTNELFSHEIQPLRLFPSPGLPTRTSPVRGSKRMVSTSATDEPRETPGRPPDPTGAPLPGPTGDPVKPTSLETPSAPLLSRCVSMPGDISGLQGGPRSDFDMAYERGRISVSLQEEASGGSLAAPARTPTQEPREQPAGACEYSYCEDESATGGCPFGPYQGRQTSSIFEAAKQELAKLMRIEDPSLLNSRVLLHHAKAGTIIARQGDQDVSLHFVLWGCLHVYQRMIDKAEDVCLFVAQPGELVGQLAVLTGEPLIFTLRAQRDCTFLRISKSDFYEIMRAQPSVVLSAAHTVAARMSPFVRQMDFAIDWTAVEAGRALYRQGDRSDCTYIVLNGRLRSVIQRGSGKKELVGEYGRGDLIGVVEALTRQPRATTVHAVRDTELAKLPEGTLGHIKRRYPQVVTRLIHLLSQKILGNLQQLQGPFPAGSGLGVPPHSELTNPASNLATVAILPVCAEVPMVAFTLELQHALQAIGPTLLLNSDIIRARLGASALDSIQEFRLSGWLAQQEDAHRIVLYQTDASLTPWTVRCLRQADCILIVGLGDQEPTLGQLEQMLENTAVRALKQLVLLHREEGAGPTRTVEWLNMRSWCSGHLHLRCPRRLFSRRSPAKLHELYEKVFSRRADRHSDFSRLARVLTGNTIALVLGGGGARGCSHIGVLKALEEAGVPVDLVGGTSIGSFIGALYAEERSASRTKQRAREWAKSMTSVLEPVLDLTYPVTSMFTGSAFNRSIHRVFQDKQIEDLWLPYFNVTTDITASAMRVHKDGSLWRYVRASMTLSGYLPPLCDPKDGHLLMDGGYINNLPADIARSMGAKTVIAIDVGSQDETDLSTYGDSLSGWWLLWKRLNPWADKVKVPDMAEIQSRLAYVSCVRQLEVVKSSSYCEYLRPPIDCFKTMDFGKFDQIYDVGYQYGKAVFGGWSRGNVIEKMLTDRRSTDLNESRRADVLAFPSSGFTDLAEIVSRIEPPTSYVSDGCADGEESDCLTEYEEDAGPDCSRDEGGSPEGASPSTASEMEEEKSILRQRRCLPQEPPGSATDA
UniProt P11021, residues 19-654: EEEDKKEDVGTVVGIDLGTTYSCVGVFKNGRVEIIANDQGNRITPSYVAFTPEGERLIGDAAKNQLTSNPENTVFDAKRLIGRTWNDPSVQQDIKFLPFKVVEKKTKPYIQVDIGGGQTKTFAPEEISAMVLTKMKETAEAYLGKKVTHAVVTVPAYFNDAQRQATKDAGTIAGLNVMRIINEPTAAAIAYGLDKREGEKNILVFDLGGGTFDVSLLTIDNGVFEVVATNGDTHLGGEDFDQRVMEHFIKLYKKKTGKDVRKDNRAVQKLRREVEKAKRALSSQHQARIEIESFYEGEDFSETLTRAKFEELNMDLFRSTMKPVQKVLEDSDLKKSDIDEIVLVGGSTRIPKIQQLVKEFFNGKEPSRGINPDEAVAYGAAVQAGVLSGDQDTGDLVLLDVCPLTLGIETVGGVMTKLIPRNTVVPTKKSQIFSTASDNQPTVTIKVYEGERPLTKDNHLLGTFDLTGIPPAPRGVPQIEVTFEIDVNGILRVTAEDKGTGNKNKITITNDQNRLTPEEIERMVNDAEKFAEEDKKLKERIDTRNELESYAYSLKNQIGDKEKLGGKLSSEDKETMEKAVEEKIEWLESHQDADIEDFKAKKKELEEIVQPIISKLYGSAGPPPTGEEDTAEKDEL

Experiments:
Test in all cases: affinity purification with mass spectrometry; TAP-MS: C-terminal SFB-tagged PLD bait from stable HEK293A cells, lysed in NETN buffer (100 mM NaCl, 20 mM Tris-HCl pH 8.0, 0.5 mM EDTA, 0.5% Nonidet P-40), streptavidin beads, biotin elution, S protein beads, 4 °C; HCIP: SAINT score at least 0.8 and raw spectra count at least 2
PLD3 (human) = target: T1, PLD3 (human) (UniProt Q8IV08)
T1 sequence: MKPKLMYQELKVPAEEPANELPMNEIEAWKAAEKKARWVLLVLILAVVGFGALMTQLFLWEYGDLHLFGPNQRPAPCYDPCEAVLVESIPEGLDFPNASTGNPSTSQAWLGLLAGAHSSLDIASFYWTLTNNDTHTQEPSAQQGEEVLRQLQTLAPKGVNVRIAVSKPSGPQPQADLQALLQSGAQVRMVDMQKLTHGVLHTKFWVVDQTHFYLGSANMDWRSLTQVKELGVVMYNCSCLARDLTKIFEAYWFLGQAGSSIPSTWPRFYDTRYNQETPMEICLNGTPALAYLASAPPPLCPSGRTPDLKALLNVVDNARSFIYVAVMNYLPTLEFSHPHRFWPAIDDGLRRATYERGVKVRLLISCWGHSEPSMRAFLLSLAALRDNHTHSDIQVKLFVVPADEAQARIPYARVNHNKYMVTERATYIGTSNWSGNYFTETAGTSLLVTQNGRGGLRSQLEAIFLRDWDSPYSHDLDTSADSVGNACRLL

PLD4 (human) = target: T2, PLD4 (human) (UniProt Q96BZ4)
T2 sequence: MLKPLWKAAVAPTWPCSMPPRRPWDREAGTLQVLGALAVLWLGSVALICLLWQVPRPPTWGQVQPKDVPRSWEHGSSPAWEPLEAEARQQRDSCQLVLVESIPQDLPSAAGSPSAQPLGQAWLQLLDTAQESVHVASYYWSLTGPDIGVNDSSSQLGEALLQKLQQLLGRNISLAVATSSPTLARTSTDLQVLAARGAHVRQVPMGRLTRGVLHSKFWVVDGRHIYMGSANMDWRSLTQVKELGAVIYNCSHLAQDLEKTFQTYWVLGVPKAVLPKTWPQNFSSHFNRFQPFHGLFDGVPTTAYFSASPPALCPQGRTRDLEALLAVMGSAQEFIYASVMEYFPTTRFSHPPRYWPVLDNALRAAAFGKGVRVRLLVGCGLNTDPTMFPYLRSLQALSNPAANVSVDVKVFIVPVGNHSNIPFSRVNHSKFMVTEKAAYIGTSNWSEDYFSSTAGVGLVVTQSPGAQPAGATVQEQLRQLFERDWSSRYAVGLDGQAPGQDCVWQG

PLD6 (human) = target: T3, PLD6 (human) (UniProt Q8N2A8)
T3 sequence: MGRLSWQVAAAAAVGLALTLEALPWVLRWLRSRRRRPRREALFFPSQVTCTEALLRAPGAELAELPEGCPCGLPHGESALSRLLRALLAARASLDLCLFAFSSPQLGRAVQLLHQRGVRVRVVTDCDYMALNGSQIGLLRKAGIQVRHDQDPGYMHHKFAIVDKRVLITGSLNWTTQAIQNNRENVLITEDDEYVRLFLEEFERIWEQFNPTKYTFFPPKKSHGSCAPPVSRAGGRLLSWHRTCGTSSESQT

In the case of TM9SF2 (from UniProt Q99805 29-663), the binding (PLD3 (human)) is reported as “binds” and the binding (PLD4 (human)) is reported as “binds”.

For PDIA3 (from UniProt P30101 25-505), the binding (PLD3 (human)) was “binds” and the binding (PLD4 (human)) was “binds”.

For TM9SF4 (from UniProt Q92544 24-642), the binding (PLD3 (human)) was “binds” and the binding (PLD4 (human)) was “binds”.

In the case of TM9SF1 (from UniProt O15321 28-606), the binding (PLD3 (human)) is reported as “binds” and the binding (PLD4 (human)) is reported as “binds”.

With PNPLA6 (from UniProt Q8IY17 1-1375) the binding (PLD3 (human)) was “binds”.

HSPA5 (from UniProt P11021 19-654) was tested, and the binding (PLD6 (human)) was “binds”.

B1: PLD4 (protein, UniProt Q96BZ4 1-506)
chain: MLKPLWKAAVAPTWPCSMPPRRPWDREAGTLQVLGALAVLWLGSVALICLLWQVPRPPTWGQVQPKDVPRSWEHGSSPAWEPLEAEARQQRDSCQLVLVESIPQDLPSAAGSPSAQPLGQAWLQLLDTAQESVHVASYYWSLTGPDIGVNDSSSQLGEALLQKLQQLLGRNISLAVATSSPTLARTSTDLQVLAARGAHVRQVPMGRLTRGVLHSKFWVVDGRHIYMGSANMDWRSLTQVKELGAVIYNCSHLAQDLEKTFQTYWVLGVPKAVLPKTWPQNFSSHFNRFQPFHGLFDGVPTTAYFSASPPALCPQGRTRDLEALLAVMGSAQEFIYASVMEYFPTTRFSHPPRYWPVLDNALRAAAFGKGVRVRLLVGCGLNTDPTMFPYLRSLQALSNPAANVSVDVKVFIVPVGNHSNIPFSRVNHSKFMVTEKAAYIGTSNWSEDYFSSTAGVGLVVTQSPGAQPAGATVQEQLRQLFERDWSSRYAVGLDGQAPGQDCVWQG
With B1 the binding (PLD3 (human)) was “binds”.

B2: PDIA6 (protein, UniProt Q15084 20-440)
chain: LYSSSDDVIELTPSNFNREVIQSDSLWLVEFYAPWCGHCQRLTPEWKKAATALKDVVKVGAVDADKHHSLGGQYGVQGFPTIKIFGSNKNRPEDYQGGRTGEAIVDAALSALRQLVKDRLGGRSGGYSSGKQGRSDSSSKKDVIELTDDSFDKNVLDSEDVWMVEFYAPWCGHCKNLEPEWAAAASEVKEQTKGKVKLAAVDATVNQVLASRYGIRGFPTIKIFQKGESPVDYDGGRTRSDIVSRALDLFSDNAPPPELLEIINEDIAKRTCEEHQLCVVAVLPHILDTGAAGRNSYLEVLLKLADKYKKKMWGWLWTEAGAQSELETALGIGGFGYPAMAAINARKMKFALLKGSFSEQGINEFLRELSFGRGSTAPVGGGAFPTIVEREPWDGRDGELPVEDDIDLSDVELDDLGKDEL
For B2, the binding (PLD3 (human)) was “binds” and the binding (PLD4 (human)) was “binds”.

B3: TM9SF3 (protein, UniProt Q9HD45 29-589)
chain: DEHEHTYQDKEEVVLWMNTVGPYHNRQETYKYFSLPFCVGSKKSISHYHETLGEALQGVELEFSGLDIKFKDDVMPATYCEIDLDKEKRDAFVYAIKNHYWYQMYIDDLPIWGIVGEADENGEDYYLWTYKKLEIGFNGNRIVDVNLTSEGKVKLVPNTKIQMSYSVKWKKSDVKFEDRFDKYLDPSFFQHRIHWFSIFNSFMMVIFLVGLVSMILMRTLRKDYARYSKEEEMDDMDRDLGDEYGWKQVHGDVFRPSSHPLIFSSLIGSGCQIFAVSLIVIIVAMIEDLYTERGSMLSTAIFVYAATSPVNGYFGGSLYARQGGRRWIKQMFIGAFLIPAMVCGTAFFINFIAIYYHASRAIPFGTMVAVCCICFFVILPLNLVGTILGRNLSGQPNFPCRVNAVPRPIPEKKWFMEPAVIVCLGGILPFGSIFIEMYFIFTSFWAYKIYYVYGFMMLVLVILCIVTVCVTIVCTYFLLNAEDYRWQWTSFLSAASTAIYVYMYSFYYYFFKTKMYGLFQTSFYFGYMAVFSTALGIMCGAIGYMGTSAFVRKIYTNVKID
B3 was tested, and the binding (PLD3 (human)) was “binds” and the binding (PLD4 (human)) was “binds”.

B4: TMX3 (protein, UniProt Q96JJ7 25-454)
chain: KGFVEDLDESFKENRNDDIWLVDFYAPWCGHCKKLEPIWNEVGLEMKSIGSPVKVGKMDATSYSSIASEFGVRGYPTIKLLKGDLAYNYRGPRTKDDIIEFAHRVSGALIRPLPSQQMFEHMQKRHRVFFVYVGGESPLKEKYIDAASELIVYTYFFSASEEVVPEYVTLKEMPAVLVFKDETYFVYDEYEDGDLSSWINRERFQNYLAMDGFLLYELGDTGKLVALAVIDEKNTSVEHTRLKSIIQEVARDYRDLFHRDFQFGHMDGNDYINTLLMDELTVPTVVVLNTSNQQYFLLDRQIKNVEDMVQFINNILDGTVEAQGGDSILQRLKRIVFDAKSTIVSIFKSSPLMGCFLFGLPLGVISIMCYGIYTADTDGGYIEERYEVSKSENENQEQIEESKEQQEPSSGGSVVPTVQEPKDVLEKKKD
For B4, the binding (PLD4 (human)) was “binds”.

B5: PLD3 (protein, UniProt Q8IV08 1-490)
chain: MKPKLMYQELKVPAEEPANELPMNEIEAWKAAEKKARWVLLVLILAVVGFGALMTQLFLWEYGDLHLFGPNQRPAPCYDPCEAVLVESIPEGLDFPNASTGNPSTSQAWLGLLAGAHSSLDIASFYWTLTNNDTHTQEPSAQQGEEVLRQLQTLAPKGVNVRIAVSKPSGPQPQADLQALLQSGAQVRMVDMQKLTHGVLHTKFWVVDQTHFYLGSANMDWRSLTQVKELGVVMYNCSCLARDLTKIFEAYWFLGQAGSSIPSTWPRFYDTRYNQETPMEICLNGTPALAYLASAPPPLCPSGRTPDLKALLNVVDNARSFIYVAVMNYLPTLEFSHPHRFWPAIDDGLRRATYERGVKVRLLISCWGHSEPSMRAFLLSLAALRDNHTHSDIQVKLFVVPADEAQARIPYARVNHNKYMVTERATYIGTSNWSGNYFTETAGTSLLVTQNGRGGLRSQLEAIFLRDWDSPYSHDLDTSADSVGNACRLL
In the case of B5, the binding (PLD4 (human)) is reported as “binds”.

B6: ERLEC1 (protein, UniProt Q96DZ1 34-483)
chain: LPQLSDDIPFRVNWPGTEFSLPTTGVLYKEDNYVIMTTAHKEKYKCILPLVTSGDEEEEKDYKGPNPRELLEPLFKQSSCSYRIESYWTYEVCHGKHIRQYHEEKETGQKINIHEYYLGNMLAKNLLFEKEREAEEKEKSNEIPTKNIEGQMTPYYPVGMGNGTPCSLKQNRPRSSTVMYICHPESKHEILSVAEVTTCEYEVVILTPLLCSHPKYRFRASPVNDIFCQSLPGSPFKPLTLRQLEQQEEILRVPFRRNKEEDLQSTKEERFPAIHKSIAIGSQPVLTVGTTHISKLTDDQLIKEFLSGSYCFRGGVGWWKYEFCYGKHVHQYHEDKDSGKTSVVVGTWNQEEHIEWAKKNTARAYHLQDDGTQTVRMVSHFYGNGDICDITDKPRQVTVKLKCKESDSPHAVTVYMLEPHSCQYILGVESPVICKILDTADENGLLSLPN
B6 was tested, and the binding (PLD6 (human)) was “binds”.

B7: PDIA4 (protein, UniProt P13667 21-645)
chain: VAGAEGPDEDSSNRENAIEDEEEEEEEDDDEEEDDLEVKEENGVLVLNDANFDNFVADKDTVLLEFYAPWCGHCKQFAPEYEKIANILKDKDPPIPVAKIDATSASVLASRFDVSGYPTIKILKKGQAVDYEGSRTQEEIVAKVREVSQPDWTPPPEVTLVLTKENFDEVVNDADIILVEFYAPWCGHCKKLAPEYEKAAKELSKRSPPIPLAKVDATAETDLAKRFDVSGYPTLKIFRKGRPYDYNGPREKYGIVDYMIEQSGPPSKEILTLKQVQEFLKDGDDVIIIGVFKGESDPAYQQYQDAANNLREDYKFHHTFSTEIAKFLKVSQGQLVVMQPEKFQSKYEPRSHMMDVQGSTQDSAIKDFVLKYALPLVGHRKVSNDAKRYTRRPLVVVYYSVDFSFDYRAATQFWRSKVLEVAKDFPEYTFAIADEEDYAGEVKDLGLSESGEDVNAAILDESGKKFAMEPEEFDSDTLREFVTAFKKGKLKPVIKSQPVPKNNKGPVKVVVGKTFDSIVMDPKKDVLIEFYAPWCGHCKQLEPVYNSLAKKYKGQKGLVIAKMDATANDVPSDRYKVEGFPTIYFAPSGDKKNPVKFEGGDRDLEHLSKFIEEHATKLSRTKEEL
B7 was tested, and the binding (PLD3 (human)) was “binds” and the binding (PLD4 (human)) was “binds”.

These are yes or no findings as the source states them, for the method shown. In cells and extracts the contact can be indirect. Here binding means that the protein was enriched with, or labelled near, the bait; the list need not be complete.
